We go through two compounds from PMC6429502, “Synthesis and AChE-Inhibitory Activity of New Benzimidazole Derivatives” (Molecules, 2019).

Chains of the proteins cited; added tags and fusions are not shown. Residues count along the entry.
UniProt O42275, 24-633 limits assumed: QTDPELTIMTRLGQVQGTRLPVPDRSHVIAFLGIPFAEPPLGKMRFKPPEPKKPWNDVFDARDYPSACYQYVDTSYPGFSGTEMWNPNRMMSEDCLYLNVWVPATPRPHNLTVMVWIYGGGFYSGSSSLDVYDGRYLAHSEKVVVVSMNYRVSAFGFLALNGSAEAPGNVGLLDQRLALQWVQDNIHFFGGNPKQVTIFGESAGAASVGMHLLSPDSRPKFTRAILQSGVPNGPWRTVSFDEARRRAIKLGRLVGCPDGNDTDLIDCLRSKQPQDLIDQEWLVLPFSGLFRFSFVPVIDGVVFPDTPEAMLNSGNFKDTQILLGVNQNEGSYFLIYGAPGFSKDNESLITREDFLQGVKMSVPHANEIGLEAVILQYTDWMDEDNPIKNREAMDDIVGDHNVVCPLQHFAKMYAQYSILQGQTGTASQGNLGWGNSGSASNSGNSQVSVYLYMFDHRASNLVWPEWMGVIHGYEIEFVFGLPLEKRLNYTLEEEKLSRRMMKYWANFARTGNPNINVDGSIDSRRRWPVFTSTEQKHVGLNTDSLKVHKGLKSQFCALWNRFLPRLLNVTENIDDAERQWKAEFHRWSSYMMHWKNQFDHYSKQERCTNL

Certain results were filed several times, with different values. The list is limited to them. The source may hold further records. The values listed for one entry do not match, cause unknown; dose, time, organism, isomer or construct need not be as stated for each record.

This assay has as its target AChE (Electrophorus electricus, UniProt O42275). To be noted: 10^−4 M.

For `Cn1c(SCC(=O)c2ccc(O)c(O)c2)nnc1-c1ccc(-c2nc3cc(F)ccc3[nH]2)cc1` [3l, 2-(4-(4-Methyl-5-(2-(3,4-dihydroxyphenyl)-2-oxo-ethylthio)-4H-1,2,4-triazol-3yl)-phenyl)-5(6)-fluoro-1H-benzimidazole], the “% Inhibition AChE” value is “more than 50% and 83.20 ± 1.13%”.

Turning to `CCn1c(SCC(=O)c2ccc(O)c(O)c2)nnc1-c1ccc(-c2nc3cc(F)ccc3[nH]2)cc1` [3p, 2-(4-(4-Ethyl-5-(2-(3,4-dihydroxyphenyl)-2-oxo-ethylthio)-4H-1,2,4-triazol-3yl)-phenyl)-5(6)-fluoro-1H-benzimidazole], the “% Inhibition AChE” value is “more than 50% and 81.25 ± 1.88%”.
